The list shows only some results of the screen, not a fair sample: it gathers tests that were run many times, whatever their T/C, doses with no T/C, and many T/C values between a quarter and a half above the control. Further doses and runs are listed elsewhere. T/C is the treated group as % of the vehicle group. Some doses have a count of surviving animals in place of a T/C: the source files T/C as zero there, which appears to mark a toxic dose or a test without result, not a measured value. Some survivor counts are full or nearly so, which does not show that the dose was tolerated: survival well below the control is almost never listed, so the zero probably covers shortened survival too. Counts of survivors are from the toxicity check (mostly the fifth day) where no day follows; animals may have died later. Schedule codes are those of the source, read here as Q, the interval in days (D) or hours (H), X, the number of doses. For survival time, this PubChem deposit counts one and a half times the control or more as active, and values a quarter to a half above the control carry no call in these data; other NCI protocols may use other cut-offs.
Tested on: CD2F1 mice, L1210 leukemia ip, survival T/C
Assay: NCI In Vivo Anticancer Drug Screen. Data for tumor model L1210 Leukemia (intraperitoneal) in CD2F1 (CDF1) mice
Conditions: higher T/C = longer survival
Method: The antitumor activity of compounds was measured in mice bearing transplantable tumors. Survival or tumor size were measured and the results are expressed as the measurement made in the treated group (T) divided by the measurement made in the vehicle treated control group (C). The tumor model used in this assay is L1210 Leukemia (intraperitoneal) in CD2F1 (CDF1) mice

[1] = T/C endpoint: mean survival time, dose: 400.0 mg/kg/injection, schedule: Q04DX003 (ip), vehicle: saline with Tween-80
[2] = T/C endpoint: mean survival time, dose: 300.0 mg/kg/injection, schedule: Q01DX001 (ip), vehicle: saline
[3] = T/C endpoint: mean survival time, dose: 200.0 mg/kg/injection, schedule: Q04DX002 (ip), vehicle: saline with Tween-80
[4] = T/C endpoint: mean survival time, dose: 400.0 mg/kg/injection, schedule: Q04DX002 (ip), vehicle: saline with Tween-80

`O=S(=O)(F)/C=C/c1ccccc1` was tested, and the survivor count [1] was 3 of 6.

`O=Cc1ccccc1O` was tested, and the survivor count (T/C endpoint: mean survival time, dose: 200.0 mg/kg/injection, schedule: Q04DX002 (ip), vehicle: saline) was 3 of 3 and the survivor count (T/C endpoint: mean survival time, dose: 400.0 mg/kg/injection, schedule: Q04DX002 (ip), vehicle: saline) was 0 of 3.

For `CN=C(N)N/N=C(\C)c1ccc2sc3ccc(/C(C)=N/NC(N)=NC)cc3c2c1`, the T/C (T/C endpoint: median survival time, dose: 50.0 mg/kg/injection, schedule: Q01DX009 (ip), vehicle: saline with Tween-80) was 132 % of control, the T/C (T/C endpoint: median survival time, dose: 100.0 mg/kg/injection, schedule: Q01DX009 (ip), vehicle: saline with Tween-80) was 132 % of control and the T/C (T/C endpoint: median survival time, dose: 200.0 mg/kg/injection, schedule: Q01DX009 (ip), vehicle: saline with Tween-80) was 132 % of control.

With `C1CN2CN3CCN(CN1C3)C2` the survivor count (T/C endpoint: mean survival time, dose: 200.0 mg/kg/injection, schedule: Q01DX009 (ip), vehicle: saline) was 2 of 6.

For `CCCCCCCCCC[N+]1(C)CCC[N+](C)(CCCCCCCCCC)CC1` (centres undefined), the survivor count (T/C endpoint: mean survival time, dose: 50.0 mg/kg/injection, schedule: Q01DX001 (ip), vehicle: saline with Tween-80) was 1 of 6.

With `OCC1OC(c2[nH]nc3c(NO)ncnc23)C(O)C1O` (centres undefined) the survivor count [2] was 1 of 6.

For `COC(CCCl)c1ccc(Cl)cc1` (centres undefined), the survivor count [1] was 3 of 6.

`[I][Pt+2][I].[NH-]CC1CCCC[N-]1` (centres undefined) was tested, and the survivor count (T/C endpoint: mean survival time, dose: 100.0 mg/kg/injection, schedule: Q04DX003 (ip), vehicle: distilled water + Tween-80) was 3 of 6 and the survivor count (T/C endpoint: mean survival time, dose: 200.0 mg/kg/injection, schedule: Q04DX003 (ip), vehicle: distilled water + Tween-80) was 0 of 6.

With `N#CC1C2CCC(O2)C1C(=O)Oc1ccccc1` (centres undefined) the survivor count [3] was 1 of 3 and the survivor count [4] was 0 of 3.

With `CCc1c(C)[nH]c2ccc([N+](=O)[O-])cc12` the survivor count [1] was 1 of 6.

With `CC(=O)CC(C)=O.CC(=O)CC(C)=O.[Pd]` the survivor count (T/C endpoint: mean survival time, dose: 25.0 mg/kg/injection, schedule: Q04DX002 (ip), vehicle: saline with Tween-80) was 0 of 3, the survivor count (T/C endpoint: mean survival time, dose: 100.0 mg/kg/injection, schedule: Q04DX002 (ip), vehicle: saline with Tween-80) was 0 of 3 and the survivor count [3] was 0 of 3. For the same compound, the survivor count [4] was 0 of 3.

For `NC(=S)N/N=C\c1ccccn1`, the T/C (T/C endpoint: mean survival time, dose: 8.3 mg/kg/injection, schedule: Q01DX009 (ip), vehicle: saline with Tween-80) was 147 % of control, the T/C (T/C endpoint: mean survival time, dose: 12.5 mg/kg/injection, schedule: Q01DX009 (ip), vehicle: saline with Tween-80) was 127 % of control and the survivor count (T/C endpoint: mean survival time, dose: 18.75 mg/kg/injection, schedule: Q01DX009 (ip), vehicle: saline with Tween-80) was 2 of 6. For the same compound, the survivor count (T/C endpoint: mean survival time, dose: 100.0 mg/kg/injection, schedule: Q04DX003 (ip), vehicle: saline with Tween-80) was 1 of 6, the survivor count (T/C endpoint: mean survival time, dose: 200.0 mg/kg/injection, schedule: Q04DX003 (ip), vehicle: saline with Tween-80) was 0 of 6 and the survivor count [1] was 0 of 6.

In the case of `COC1=C2CCCC2=[N+]2CCCCC2C1` (centres undefined), the survivor count (T/C endpoint: mean survival time, dose: 400.0 mg/kg/injection, schedule: Q04DX003 (ip), vehicle: saline) is reported as 0 of 6.

With `CCOC(=O)c1[nH]c(-c2ccccc2)c(-c2ccccc2)c1-c1ccc(OC)cc1` the survivor count (T/C endpoint: mean survival time, dose: 75.0 mg/kg/injection, schedule: Q01DX001 (ip), vehicle: saline) was 6 of 6, the survivor count (T/C endpoint: mean survival time, dose: 150.0 mg/kg/injection, schedule: Q01DX001 (ip), vehicle: saline) was 6 of 6 and the survivor count [2] was 6 of 6.

Source: PubChem BioAssay AID256 (DTP/NCI, 2004)
